Assay results taken from PubChem BioAssay AID504467 (National Center for Advancing Translational Sciences (NCATS), 2011).
Hit rate of the full screen: of about 330,000 compounds, about 7,700 (2.3%) were called active. Inconclusive results, whose numbers are uncertain, are shown with a selection of clear calls. Calls come from the whole dose curve; as a rule, active = well fitted inhibition curve with a large enough effect; inconclusive = small, poorly fitted or top-dose-only effect, or effect the other way; inactive = flat fitted curve, though single readings scatter. Where the call is inconclusive, the potency comes from a doubtful curve fit.

Assay: qHTS screen for small molecules that inhibit ELG1-dependent DNA repair in human embryonic kidney (HEK293T) cells expressing luciferase-tagged ELG1; note: nearly all actives have a fitted effect of over 55% in size
Details: HEK293T ELG1-luciferase reporter, luminescence, 16 h, DNA damage induced by 5-fluorouridine; series mostly up to 46.1 µM
In short: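 DMSO vehicle served as the neutral condition. Each well held 2,000 cells given 5-fluorouridine plus compound; after 16 hr at 37 °C/5% CO2, ONE-Glo was added and luciferase measured 30 min later.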
Potency is the fitted concentration of half-maximal effect.

| Structure (SMILES) | Potency |
| --- | --- |
| CCN1C(=O)c2ccc(C(=O)NCc3ccco3)cc2C1=O | inactive |
| CN(C)C(=O)/C(=C\c1ccc(-c2cccc([N+](=O)[O-])c2)o1)NC(=O)c1ccccc1 | active: 20.6 µM |
| CCOc1ccc(/C=N/NC(=S)NC2CC3CCC2C3)cc1 (configuration not stated) | inconclusive: 18.3 µM [inhibitor, single point] |
| COc1cc(-c2nc(-c3ccc4c(c3)-c3ccccc3S4(=O)=O)c(-c3ccccc3)[nH]2)cc(OC)c1OC | active: 2.59 µM |
| COc1ccc(CCC(=O)Nc2nnc(C(F)(F)F)s2)cc1 | inactive |
| COc1ccc(S(=O)(=O)N2CCOCC2)cc1NC(=O)COC(=O)c1ccc([N+](=O)[O-])s1 | active: 23.1 µM |
| O=C(Nc1ccc(F)cc1)C1CCC(CNc2c(N3CCCCC3)c(=O)c2=O)CC1 (configuration not stated) | inactive |
| CC1CN(Cc2cc(=O)oc3cc(O)ccc23)CC(C)O1 (configuration not stated) | inactive |
| O=C(NCC1CCN(c2ccc(S(=O)(=O)N3CCOCC3)cc2)CC1)Nc1ccccc1F | inactive |
| COc1ccc(NC(=O)c2ccc([N+](=O)[O-])cc2[N+](=O)[O-])c(OC)c1 | inactive |
| CC(C)N(Cc1ccccc1)S(=O)(=O)N(C)C | inactive |
| COc1ccc(C(=O)CC(=O)C(=O)Nc2ccc(C)c(Cl)c2)cc1 | inconclusive: 29.1 µM [inhibitor, single point] |
| COc1ccccc1C1CC(c2c(-c3ccccc3)c3cc(Cl)ccc3[nH]c2=O)=NN1S(C)(=O)=O (configuration not stated) | inconclusive: 17.8 µM [inhibitor, single point] |
| Cc1ccc2[nH]c(=O)c(CN(CCCN3CCOCC3)Cc3nnnn3C3CCCC3)cc2c1 | inactive |
| C=CCN(C(=O)c1ccccc1)c1ccc(OC)cc1 | inconclusive: 13 µM [inhibitor, partial curve, poor fit] |
| CC[C@]12c3[nH]c4ccccc4c3CCN1C(=O)C(CC(=O)NCCc1ccccn1)C[C@@H]2C(=O)N1CCN(C(=O)C2CC2)CC1 (some centres not stated) | inconclusive: 32.6 µM [activator, partial curve, poor fit] |
| Cc1cnc(C(=O)Nc2ccc(N3CCN(C(=O)OC(C)(C)C)CC3)cc2)cn1 | inconclusive: 0.731 µM [inhibitor, full curve] |
| COc1ccccc1N(CC(O)COc1ccccc1C)S(=O)(=O)c1ccccc1 (configuration not stated) | inconclusive: 29.1 µM [inhibitor, single point] |
| COc1ccc(NC(=O)Nc2ccc(CC(=O)O)cc2)cc1 | inactive |
| COCCN(CC1CCCN(C2Cc3ccccc3C2)C1)C(=O)c1cccc(C)c1 (configuration not stated) | inactive |
| C#CCCC(=O)c1ccccc1/C=[N+](\[O-])c1ccccc1 | inactive |
| Cc1ccc(CS(=O)(=O)Cc2ccc(C(=O)NCCc3ccccc3)o2)cc1 | inactive |
| CCN(CC)CCC(c1ccc2c(c1)OCO2)c1c(OC)cc(OC)c2c(-c3ccccc3)cc(=O)oc12 (configuration not stated) | inconclusive: 14.6 µM [activator, partial curve] |
| O=C(NCCS(=O)(=O)N1CCN(c2ccccc2F)CC1)c1ccc(Cl)cc1 | inactive |

| Structure (SMILES) | Potency |
| --- | --- |
| O=c1c2ccccc2nc(-c2ccc([N+](=O)[O-])cc2)n1O | inconclusive: 20.6 µM [inhibitor, partial curve, poor fit] |
| O=C(COc1ccccc1)NCC(=O)N/N=C/c1cc(Br)ccc1OCc1ccccc1 | inconclusive: 18.4 µM [inhibitor, single point] |
| CCC(=O)Nc1c(C#N)c2nc3ccccc3nc2n1-c1ccccc1C | inconclusive: 29.1 µM [inhibitor, single point] |
| Cc1sc(N)c(C(=O)c2ccccc2)c1C | inconclusive: 29.1 µM [inhibitor, single point] |
| O=[N+]([O-])c1cccnc1Oc1ccc(C2SCCS2)cc1 | inconclusive: 14.6 µM [activator, partial curve] |
| Cn1nccc1C(=O)N1CCCC(N2CCN(Cc3ccc4c(c3)OCO4)CC2)C1 (configuration not stated) | inactive |
| CCc1nc(N2CCN(c3nc(C)cc(C)n3)CC2)c2oc3ccccc3c2n1 | inactive |
| N#C/C(=C(/O)Cc1cccc2ccccc12)c1nc2ccccc2s1 | active: 20.6 µM |
| CC[C@]12c3[nH]c4cc(-c5ccco5)ccc4c3CCN1C(=O)[C@@H](CC(=O)NC(C)(C)C)C[C@@H]2C(=O)N1CCN(C(=O)C2CC2)CC1 | inconclusive: 29.1 µM [inhibitor, single point] |
| O=C(COC(=O)Cc1ccc(Cl)cc1)Nc1ccc2[nH]c(=O)[nH]c2c1 | inactive |
| COc1ccc(Cl)cc1C(=O)OCC(=O)N1CCCC(C)C1 (configuration not stated) | inconclusive: 6.51 µM [activator, partial curve, poor fit] |
| O=C1/C(=C/c2ccco2)N=C(N2CCCCC2)N1c1ccccc1 | inactive |
| CC1CCCCN1C(=O)c1ccc(C(=O)c2ccccc2)cc1 (configuration not stated) | inconclusive: 20.6 µM [inhibitor, single point] |
| Cc1nn(-c2ccccc2)c(N)c1-c1ccccc1 | inconclusive: 20.6 µM [activator, partial curve] |
| CC(C)CNC(=O)c1cccc(NC(=O)Cc2ccc(Br)cc2)c1 | inconclusive: 13 µM [inhibitor, partial curve] |
| COc1ccccc1C(=O)NCC(c1cccs1)N1CCc2ccccc21 (configuration not stated) | inconclusive: 8.2 µM [inhibitor, single point] |
| COc1ccc2cc(C(=O)C3CCCN(C(=O)c4ccnn4C)C3)ccc2c1 (configuration not stated) | inactive |
| COc1ccc(NC(=S)Nc2ccccn2)cc1 | inconclusive: 11.6 µM [activator, partial curve] |
| Cc1nn(-c2cc(C(F)(F)F)ccc2Cl)c2nc(C(Cl)(Cl)Cl)[nH]c(=O)c12 | active: 20.6 µM |
| CCOC(=O)N1CCN(Cc2nc3cc(NC(=O)CC(C)C)ccc3n2CC)CC1 | inconclusive: 23.1 µM [inhibitor, single point] |
| CCC(=O)Nc1sc2c(c1C(N)=O)CCN(C(C)=O)C2 | inconclusive: 25.9 µM [activator, single point] |
| FC(F)(F)c1cnc(N2CCN(C(=S)NCc3ccccc3)CC2)c(Cl)c1 | inconclusive: 29.1 µM [inhibitor, single point] |
| Cc1ccnc(NS(=O)(=O)c2ccc(NC(=O)c3cc(-c4ccccc4)nc4ccccc34)cc2)n1 | inactive |
| CC(C)(C)NC(=O)COC(=O)c1ccc(Cl)nc1 | inactive |

Reprinted from above for reference:

| Structure (SMILES) | Potency |
| --- | --- |
| C=CCN(C(=O)c1ccccc1)c1ccc(OC)cc1 | inconclusive: 13 µM [inhibitor, partial curve, poor fit] |
| CC[C@]12c3[nH]c4ccccc4c3CCN1C(=O)C(CC(=O)NCCc1ccccn1)C[C@@H]2C(=O)N1CCN(C(=O)C2CC2)CC1 (some centres not stated) | inconclusive: 32.6 µM [activator, partial curve, poor fit] |
| Cc1cnc(C(=O)Nc2ccc(N3CCN(C(=O)OC(C)(C)C)CC3)cc2)cn1 | inconclusive: 0.731 µM [inhibitor, full curve] |

Carrying on.

| Structure (SMILES) | Potency |
| --- | --- |
| COc1ccccc1-n1c(SCC(=O)Nc2ccc(Br)cc2)nc(O)cc1=O | inactive |
| COc1ccc(N2CCN(C(=O)CCNC(=O)c3ccc(Br)cc3)CC2)cc1 | inconclusive: 6.51 µM [activator, single point] |
| CCCC1CCc2c(sc(NC(=O)c3cccs3)c2C(N)=O)C1 (configuration not stated) | inconclusive: 9.2 µM [activator, partial curve] |
| O=C(Nc1nc2c(F)cc(F)cc2s1)c1ccc([N+](=O)[O-])o1 | inconclusive: 10.3 µM [activator, partial curve] |
| COc1ccccc1CN1CC(C(=O)NCc2cc(C(C)C)no2)CCC1=O (configuration not stated) | inconclusive: 32.6 µM [activator, partial curve, poor fit] |
| C/C=C/c1ccc(OCC(=O)Nc2ccc(OC)c(OC)c2)c(OC)c1 | active: 16.4 µM |
| CCOc1ccc(N(CC(=O)Nc2ccc(C)c(C)c2)S(C)(=O)=O)cc1 | inconclusive: 5.8 µM [activator, partial curve] |
| CSCCC(NC(=O)c1ccc(Cl)cc1Cl)C(=O)NNC(=O)c1ccncc1 (configuration not stated) | inactive |
| Brc1ccccc1-c1nnc(-c2cccnc2)o1 | inconclusive: 16.4 µM [activator, partial curve] |
| Cc1ccc(C(=O)Nc2ccc(Br)c(C(F)(F)F)c2)cc1 | inconclusive: 11.2 µM [activator, partial curve, poor fit] |
| Cc1cccc(-n2ncc3c(NCc4cccnc4)ncnc32)c1 | inconclusive: 2.59 µM [activator, full curve] |
| CCOC(=O)N1CCN(C(=O)c2cn(C)c3ccc(S(=O)(=O)N4CCC(C)CC4)cc3c2=O)CC1 | inactive |
| O=C(c1ccc2snnc2c1)N1CCN(c2ccccc2)CC1 | inactive |
| C#CCSc1nnc(-c2ccc(OC)cc2)o1 | inconclusive: 9.2 µM [activator, partial curve] |
| Cc1ccc(CN2CCN(CC(=O)N/N=C/c3ccccc3F)CC2)cc1 | inconclusive: 7.3 µM [activator, partial curve, poor fit] |
| O=C1CCCc2ccccc2N1Cc1c(Cl)cccc1Cl | inactive |
| O=C(CSc1nnnn1-c1ccc2c(c1)OCCO2)c1cccc2c1OCCO2 | inconclusive: 9.2 µM [activator, partial curve, poor fit] |
| COc1ccccc1NC(=O)COC(=O)c1ccc2c(c1)OCCO2 | inconclusive: 20.6 µM [activator, single point] |
| COc1c(N2CCN(C(=S)NC3CC4CCC3C4)C(C)C2)c(F)cc2c(=O)c(C(=O)O)cn(C3CC3)c12 (configuration not stated) | inconclusive: 20.6 µM [inhibitor, single point] |
| COc1ccc(/C=N/NC(=O)CCOc2ccccc2C)cc1OC | inconclusive: 29.1 µM [inhibitor, single point] |
| CCc1c(C)nc2ncnn2c1N1CCCC(C(=O)NCCc2ccccc2)C1 (configuration not stated) | inactive |
| CCOc1ccc(NC(=S)N2CCCN(Cc3cc(C)ccc3C)C2)cc1 | inactive |
| CCOC(=O)c1sc2nc(-c3ccccc3)ccc2c1N | inconclusive: 0.731 µM [activator, partial curve] |
| COc1ccc(NC(=O)C2CCCN(S(=O)(=O)c3ccc(-n4cnnn4)cc3)C2)cc1 (configuration not stated) | inconclusive: 29.1 µM [activator, single point] |
